Laboratory results: PMC9534960, “De Novo Design of an Androgen Receptor DNA Binding Domain‐Targeted peptide PROTAC for Prostate Cancer Therapy” (Advanced Science, 2022)
No constants are given. Whether binding was seen depends on the method and setting. In cells and extracts the contact can be indirect. Some binding calls cover weakened binding; strength is not graded here.

Amino acid sequences for entries named in this document (tags omitted).
UniProt Q00987: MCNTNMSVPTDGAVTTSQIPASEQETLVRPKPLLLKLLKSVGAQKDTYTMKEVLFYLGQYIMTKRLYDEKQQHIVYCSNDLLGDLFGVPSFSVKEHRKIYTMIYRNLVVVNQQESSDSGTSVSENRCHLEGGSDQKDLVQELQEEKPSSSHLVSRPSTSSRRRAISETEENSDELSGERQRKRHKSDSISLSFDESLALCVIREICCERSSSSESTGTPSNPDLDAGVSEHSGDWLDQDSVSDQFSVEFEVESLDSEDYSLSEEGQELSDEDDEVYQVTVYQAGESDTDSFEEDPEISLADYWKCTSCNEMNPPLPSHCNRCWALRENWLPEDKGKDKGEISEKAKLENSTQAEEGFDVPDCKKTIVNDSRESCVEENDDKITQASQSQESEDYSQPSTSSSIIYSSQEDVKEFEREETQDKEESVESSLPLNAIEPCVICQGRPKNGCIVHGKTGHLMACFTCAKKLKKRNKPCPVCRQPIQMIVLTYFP
UniProt P10275: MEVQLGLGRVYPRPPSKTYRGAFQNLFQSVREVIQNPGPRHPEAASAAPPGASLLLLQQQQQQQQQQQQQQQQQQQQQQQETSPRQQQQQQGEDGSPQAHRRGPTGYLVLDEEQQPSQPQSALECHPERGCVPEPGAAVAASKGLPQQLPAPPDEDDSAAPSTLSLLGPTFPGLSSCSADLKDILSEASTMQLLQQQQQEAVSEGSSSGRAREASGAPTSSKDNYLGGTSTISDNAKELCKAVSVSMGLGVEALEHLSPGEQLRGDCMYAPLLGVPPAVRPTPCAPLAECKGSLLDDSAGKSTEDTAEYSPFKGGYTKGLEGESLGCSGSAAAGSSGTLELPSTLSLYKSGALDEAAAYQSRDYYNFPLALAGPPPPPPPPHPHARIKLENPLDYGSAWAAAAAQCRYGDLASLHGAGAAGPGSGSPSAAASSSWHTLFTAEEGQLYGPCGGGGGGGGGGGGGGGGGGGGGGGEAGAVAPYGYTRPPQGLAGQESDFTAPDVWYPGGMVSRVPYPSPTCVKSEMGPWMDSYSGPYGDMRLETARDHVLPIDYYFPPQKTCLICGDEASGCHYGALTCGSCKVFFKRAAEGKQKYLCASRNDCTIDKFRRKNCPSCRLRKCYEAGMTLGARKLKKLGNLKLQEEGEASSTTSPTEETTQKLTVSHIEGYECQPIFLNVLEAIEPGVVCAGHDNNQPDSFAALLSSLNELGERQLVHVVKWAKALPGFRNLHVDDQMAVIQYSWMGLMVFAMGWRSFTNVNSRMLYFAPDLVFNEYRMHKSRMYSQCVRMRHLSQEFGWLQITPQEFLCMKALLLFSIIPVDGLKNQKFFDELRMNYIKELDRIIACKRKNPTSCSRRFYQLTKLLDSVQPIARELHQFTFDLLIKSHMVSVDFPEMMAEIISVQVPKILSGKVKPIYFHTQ

Molecular target: Flag‐MDM2 expressed in 293T cells (UniProt Q00987)
Test: co-IP; 293T cells transfected with HA‐AR and Flag‐MDM2, anti‐Flag immunoprecipitate, without drug (natural conditions)

- binding: binds weakly
Substance: HA‐AR (androgen receptor) expressed in 293T cells (from UniProt P10275 1-920)
